Measurements as given in publication PMC6166134.
Results are given in words; binding and its absence hold for the method and conditions named. In cells and extracts the contact can be indirect. Here binding means that the protein was enriched with, or labelled near, the bait; the list need not be complete.

The chains behind the UniProt entries cited, without tags or fusion partners.
UniProt Q9NVP2: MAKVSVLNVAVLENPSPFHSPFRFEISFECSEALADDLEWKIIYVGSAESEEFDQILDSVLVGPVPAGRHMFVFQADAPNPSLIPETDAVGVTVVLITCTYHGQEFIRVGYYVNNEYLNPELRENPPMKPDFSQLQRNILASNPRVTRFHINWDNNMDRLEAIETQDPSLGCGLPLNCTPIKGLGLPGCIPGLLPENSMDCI
UniProt O14929: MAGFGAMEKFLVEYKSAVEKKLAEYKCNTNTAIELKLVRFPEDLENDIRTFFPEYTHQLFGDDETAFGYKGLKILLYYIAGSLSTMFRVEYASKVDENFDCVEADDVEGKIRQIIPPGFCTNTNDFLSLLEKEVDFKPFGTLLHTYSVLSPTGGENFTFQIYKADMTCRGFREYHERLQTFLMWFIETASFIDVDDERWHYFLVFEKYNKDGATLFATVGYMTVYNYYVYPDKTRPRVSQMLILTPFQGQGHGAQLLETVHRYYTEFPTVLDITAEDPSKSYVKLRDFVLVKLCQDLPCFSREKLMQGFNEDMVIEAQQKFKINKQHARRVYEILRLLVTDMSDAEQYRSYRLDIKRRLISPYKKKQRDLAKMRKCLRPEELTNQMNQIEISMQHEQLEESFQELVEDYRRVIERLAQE
UniProt Q9UBN7: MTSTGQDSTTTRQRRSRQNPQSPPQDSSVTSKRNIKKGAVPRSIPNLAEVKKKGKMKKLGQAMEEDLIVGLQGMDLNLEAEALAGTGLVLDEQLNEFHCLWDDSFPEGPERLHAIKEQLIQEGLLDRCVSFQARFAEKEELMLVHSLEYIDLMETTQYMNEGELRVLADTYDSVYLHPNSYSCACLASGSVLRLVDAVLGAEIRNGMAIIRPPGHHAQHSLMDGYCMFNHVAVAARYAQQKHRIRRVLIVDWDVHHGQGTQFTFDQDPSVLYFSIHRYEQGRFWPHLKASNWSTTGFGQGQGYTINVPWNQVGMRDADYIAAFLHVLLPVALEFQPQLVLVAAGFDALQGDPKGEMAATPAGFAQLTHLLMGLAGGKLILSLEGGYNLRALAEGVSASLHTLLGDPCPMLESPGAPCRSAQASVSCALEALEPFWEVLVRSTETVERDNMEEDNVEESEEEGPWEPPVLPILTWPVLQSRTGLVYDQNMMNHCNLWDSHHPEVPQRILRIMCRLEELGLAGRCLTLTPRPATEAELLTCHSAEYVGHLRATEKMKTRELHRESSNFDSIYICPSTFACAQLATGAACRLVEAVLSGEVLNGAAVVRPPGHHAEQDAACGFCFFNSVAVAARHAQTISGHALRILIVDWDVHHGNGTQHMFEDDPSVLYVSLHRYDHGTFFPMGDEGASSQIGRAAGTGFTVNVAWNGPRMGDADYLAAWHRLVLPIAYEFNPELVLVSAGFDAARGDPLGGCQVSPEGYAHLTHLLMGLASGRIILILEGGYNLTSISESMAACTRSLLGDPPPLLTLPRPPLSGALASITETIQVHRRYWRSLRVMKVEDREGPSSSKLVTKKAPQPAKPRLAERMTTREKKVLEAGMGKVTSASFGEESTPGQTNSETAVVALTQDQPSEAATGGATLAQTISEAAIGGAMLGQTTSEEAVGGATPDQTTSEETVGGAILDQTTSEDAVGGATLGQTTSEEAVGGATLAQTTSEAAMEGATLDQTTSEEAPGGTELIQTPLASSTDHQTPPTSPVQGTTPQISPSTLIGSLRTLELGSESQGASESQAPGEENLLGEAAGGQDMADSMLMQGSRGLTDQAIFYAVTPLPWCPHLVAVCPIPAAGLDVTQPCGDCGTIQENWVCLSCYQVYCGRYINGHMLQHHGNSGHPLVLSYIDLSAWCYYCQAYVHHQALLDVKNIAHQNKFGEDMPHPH
UniProt P54198: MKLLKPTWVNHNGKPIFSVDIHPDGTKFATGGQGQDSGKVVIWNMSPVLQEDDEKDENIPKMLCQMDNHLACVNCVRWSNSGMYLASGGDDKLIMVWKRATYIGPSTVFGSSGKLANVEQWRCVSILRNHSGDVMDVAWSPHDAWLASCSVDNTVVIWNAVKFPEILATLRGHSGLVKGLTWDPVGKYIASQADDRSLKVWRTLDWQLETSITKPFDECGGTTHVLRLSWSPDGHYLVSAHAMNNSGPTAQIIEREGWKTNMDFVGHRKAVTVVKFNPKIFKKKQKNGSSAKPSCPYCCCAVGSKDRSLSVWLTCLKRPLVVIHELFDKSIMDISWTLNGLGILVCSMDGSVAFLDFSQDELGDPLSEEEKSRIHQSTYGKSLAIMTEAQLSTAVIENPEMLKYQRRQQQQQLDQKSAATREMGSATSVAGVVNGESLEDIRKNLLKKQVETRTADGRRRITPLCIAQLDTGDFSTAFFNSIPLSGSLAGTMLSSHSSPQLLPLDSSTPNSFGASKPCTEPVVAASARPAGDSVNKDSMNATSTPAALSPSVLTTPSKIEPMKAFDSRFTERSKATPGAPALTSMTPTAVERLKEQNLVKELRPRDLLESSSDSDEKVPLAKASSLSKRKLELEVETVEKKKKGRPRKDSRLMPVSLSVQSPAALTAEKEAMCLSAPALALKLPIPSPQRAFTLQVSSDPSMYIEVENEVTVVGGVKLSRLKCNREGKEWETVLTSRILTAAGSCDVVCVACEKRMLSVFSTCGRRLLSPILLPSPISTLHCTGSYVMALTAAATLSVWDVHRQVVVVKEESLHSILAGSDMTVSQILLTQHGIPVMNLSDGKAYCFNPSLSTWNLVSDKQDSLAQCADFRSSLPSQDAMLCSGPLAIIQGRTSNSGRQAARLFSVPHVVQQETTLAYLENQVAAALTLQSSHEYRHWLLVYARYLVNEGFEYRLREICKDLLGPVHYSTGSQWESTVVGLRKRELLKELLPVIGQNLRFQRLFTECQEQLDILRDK
UniProt Q14974: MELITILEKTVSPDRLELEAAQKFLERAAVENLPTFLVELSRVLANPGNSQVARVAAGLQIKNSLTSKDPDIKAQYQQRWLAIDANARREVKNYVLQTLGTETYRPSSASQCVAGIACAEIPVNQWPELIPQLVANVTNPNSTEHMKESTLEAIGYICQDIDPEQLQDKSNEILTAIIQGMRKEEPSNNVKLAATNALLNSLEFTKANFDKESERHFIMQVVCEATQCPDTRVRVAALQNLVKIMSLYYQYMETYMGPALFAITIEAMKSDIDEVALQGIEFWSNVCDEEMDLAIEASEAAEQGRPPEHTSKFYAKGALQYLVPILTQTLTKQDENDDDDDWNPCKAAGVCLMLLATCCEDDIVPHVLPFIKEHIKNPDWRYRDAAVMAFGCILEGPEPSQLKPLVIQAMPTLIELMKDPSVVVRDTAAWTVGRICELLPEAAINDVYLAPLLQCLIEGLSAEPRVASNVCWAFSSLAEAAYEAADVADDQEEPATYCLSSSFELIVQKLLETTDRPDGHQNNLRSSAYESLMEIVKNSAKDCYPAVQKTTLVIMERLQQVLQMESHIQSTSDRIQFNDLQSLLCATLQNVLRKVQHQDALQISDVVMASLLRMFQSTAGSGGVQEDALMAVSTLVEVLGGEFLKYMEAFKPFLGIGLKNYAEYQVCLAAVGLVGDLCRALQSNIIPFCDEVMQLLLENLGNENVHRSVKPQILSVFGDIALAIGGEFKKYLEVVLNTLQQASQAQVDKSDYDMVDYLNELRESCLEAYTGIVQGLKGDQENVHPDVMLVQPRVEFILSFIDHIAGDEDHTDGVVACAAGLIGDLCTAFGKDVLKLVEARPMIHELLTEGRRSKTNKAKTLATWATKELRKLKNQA
UniProt Q9UKI8: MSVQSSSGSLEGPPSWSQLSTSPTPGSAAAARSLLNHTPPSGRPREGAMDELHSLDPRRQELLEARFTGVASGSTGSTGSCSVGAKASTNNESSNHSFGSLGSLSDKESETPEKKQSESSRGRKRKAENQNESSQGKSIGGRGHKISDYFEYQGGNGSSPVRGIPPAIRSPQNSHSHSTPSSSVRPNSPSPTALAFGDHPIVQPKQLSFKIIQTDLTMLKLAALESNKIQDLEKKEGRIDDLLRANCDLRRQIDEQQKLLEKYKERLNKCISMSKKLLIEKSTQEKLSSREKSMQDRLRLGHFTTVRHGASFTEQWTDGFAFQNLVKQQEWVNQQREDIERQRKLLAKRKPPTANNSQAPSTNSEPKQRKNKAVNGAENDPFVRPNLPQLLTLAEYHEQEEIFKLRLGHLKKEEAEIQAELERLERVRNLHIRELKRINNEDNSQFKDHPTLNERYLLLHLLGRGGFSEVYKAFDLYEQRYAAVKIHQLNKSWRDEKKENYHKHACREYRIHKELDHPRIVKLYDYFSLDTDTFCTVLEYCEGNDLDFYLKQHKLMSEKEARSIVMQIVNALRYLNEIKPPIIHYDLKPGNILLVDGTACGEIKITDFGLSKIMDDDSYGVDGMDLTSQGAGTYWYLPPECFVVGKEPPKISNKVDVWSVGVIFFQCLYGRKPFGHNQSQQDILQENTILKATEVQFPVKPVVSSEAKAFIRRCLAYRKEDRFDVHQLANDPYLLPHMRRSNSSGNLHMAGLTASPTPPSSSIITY
UniProt Q86UE8: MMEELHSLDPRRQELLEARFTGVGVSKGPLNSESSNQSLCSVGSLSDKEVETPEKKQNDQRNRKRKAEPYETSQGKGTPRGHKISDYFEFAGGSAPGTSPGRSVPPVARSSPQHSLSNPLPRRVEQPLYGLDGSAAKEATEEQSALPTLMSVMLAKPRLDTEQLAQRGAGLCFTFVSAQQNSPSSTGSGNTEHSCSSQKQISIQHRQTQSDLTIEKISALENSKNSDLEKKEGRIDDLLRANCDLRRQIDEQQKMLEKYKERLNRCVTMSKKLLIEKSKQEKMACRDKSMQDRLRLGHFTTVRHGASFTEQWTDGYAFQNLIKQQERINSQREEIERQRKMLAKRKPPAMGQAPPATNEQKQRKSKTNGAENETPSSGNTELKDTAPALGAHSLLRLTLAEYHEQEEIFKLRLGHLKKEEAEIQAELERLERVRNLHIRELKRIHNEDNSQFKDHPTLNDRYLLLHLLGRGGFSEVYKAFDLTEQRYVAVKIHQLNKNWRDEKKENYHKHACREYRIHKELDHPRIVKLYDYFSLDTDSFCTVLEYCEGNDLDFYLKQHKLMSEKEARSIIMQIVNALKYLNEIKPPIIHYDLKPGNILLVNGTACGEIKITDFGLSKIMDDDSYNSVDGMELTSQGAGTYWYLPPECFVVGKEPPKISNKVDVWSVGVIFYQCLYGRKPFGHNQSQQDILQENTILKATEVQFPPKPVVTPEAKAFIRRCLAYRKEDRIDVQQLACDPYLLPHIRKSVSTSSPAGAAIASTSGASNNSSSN

Assays:
Experiment in all cases: affinity purification with mass spectrometry; GFP-Trap immunoprecipitates of stable HeLa lines, in-gel digested, nanoLC-ESI-MS/MS, label-free quantification; three biological replicates
EGFP-sNASP = EGFP-sNASP (UniProt P49321)
EGFP-ASF1b = EGFP-ASF1b (UniProt Q9NVP2)
EGFP-HAT1 = EGFP-HAT1 (UniProt O14929)
EGFP-sNASP, P49321 = details: remark: other sources report otherwise

Molecule	binding (EGFP-sNASP)	binding (EGFP-ASF1b)	binding (EGFP-HAT1)	binding (EGFP-sNASP, P49321)
EGFP-ASF1b (from UniProt Q9NVP2 1-202)	binds			
EGFP-HAT1 (from UniProt O14929 1-419)	binds	binds		
HDAC6 (endogenous) (from UniProt Q9UBN7 1-1215)	binds	binds	binds	
HIRA (endogenous) (from UniProt P54198 1-1017)		binds		
KPNB1 (endogenous) (from UniProt Q14974 1-876)	binds	binds	binds	
TLK1 (endogenous) (from UniProt Q9UKI8 1-766)		binds		
TLK2 (endogenous) (from UniProt Q86UE8 1-772)		binds		
tNASP (endogenous) (from UniProt P49321-1 1-788)		binds		
IPO4 (endogenous), Q8TEX9 1-1081 (protein) MESAGLEQLLRELLLPDTERIRRATEQLQIVLRAPAALPALCDLLASAADPQIRQFAAVLTRRRLNTRWRRLAAEQRESLKSLILTALQRETEHCVSLSLAQLSATIFRKEGLEAWPQLLQLLQHSTHSPHSPEREMGLLLLSVVVTSRPEAFQPHHRELLRLLNETLGEVGSPGLLFYSLRTLTTMAPYLSTEDVPLARMLVPKLIMAMQTLIPIDEAKACEALEALDELLESEVPVITPYLSEVLTFCLEVARNVALGNAIRIRILCCLTFLVKVKSKALLKNRLLPPLLHTLFPIVAAEPPPGQLDPEDQDSEEEELEIELMGETPKHFAVQVVDMLALHLPPEKLCPQLMPMLEEALRSESPYQRKAGLLVLAVLSDGAGDHIRQRLLPPLLQIVCKGLEDPSQVVRNAALFALGQFSENLQPHISSYSREVMPLLLAYLKSVPLGHTHHLAKACYALENFVENLGPKVQPYLPELMECMLQLLRNPSSPRAKELAVSALGAIATAAQASLLPYFPAIMEHLREFLLTGREDLQPVQIQSLETLGVLARAVGEPMRPLAEECCQLGLGLCDQVDDPDLRRCTYSLFAALSGLMGEGLAPHLEQITTLMLLSLRSTEGIVPQYDGSSSFLLFDDESDGEEEEELMDEDVEEEDDSEISGYSVENAFFDEKEDTCAAVGEISVNTSVAFLPYMESVFEEVFKLLECPHLNVRKAAHEALGQFCCALHKACQSCPSEPNTAALQAALARVVPSYMQAVNRERERQVVMAVLEALTGVLRSCGTLTLKPPGRLAELCGVLKAVLQRKTACQDTDEEEEEEDDDQAEYDAMLLEHAGEAIPALAAAAGGDSFAPFFAGFLPLLVCKTKQGCTVAEKSFAVGTLAETIQGLGAASAQFVSRLLPVLLSTAQEADPEVRSNAIFGMGVLAEHGGHPAQEHFPKLLGLLFPLLARERHDRVRDNICGALARLLMASPTRKPEPQVLAALLHALPLKEDLEEWVTIGRLFSFLYQSSPDQVIDVAPELLRICSLILADNKIPPDTKAALLLLLTFLAKQHTDSFQAALGSLPVDKAQELQAVLGLS				binds
HDAC10 (endogenous) (protein, UniProt Q969S8 1-669) MGTALVYHEDMTATRLLWDDPECEIERPERLTAALDRLRQRGLEQRCLRLSAREASEEELGLVHSPEYVSLVRETQVLGKEELQALSGQFDAIYFHPSTFHCARLAAGAGLQLVDAVLTGAVQNGLALVRPPGHHGQRAAANGFCVFNNVAIAAAHAKQKHGLHRILVVDWDVHHGQGIQYLFEDDPSVLYFSWHRYEHGRFWPFLRESDADAVGRGQGLGFTVNLPWNQVGMGNADYVAAFLHLLLPLAFEFDPELVLVSAGFDSAIGDPEGQMQATPECFAHLTQLLQVLAGGRVCAVLEGGYHLESLAESVCMTVQTLLGDPAPPLSGPMAPCQSALESIQSARAAQAPHWKSLQQQDVTAVPMSPSSHSPEGRPPPLLPGGPVCKAAASAPSSLLDQPCLCPAPSVRTAVALTTPDITLVLPPDVIQQEASALREETEAWARPHESLAREEALTALGKLLYLLDGMLDGQVNSGIAATPASAAAATLDVAVRRGLSHGAQRLLCVALGQLDRPPDLAHDGRSLWLNIRGKEAAALSMFHVSTPLPVMTGGFLSCILGLVLPLAYGFQPDLVLVALGPGHGLQGPHAALLAAMLRGLAGGRVLALLEENSTPQLAGILARVLNGEAPPSLGPSSVASPEDVQALMYLRGQLEPQWKMLQCHPHLVA	binds	binds	binds	
CDAN1 (endogenous) (protein, UniProt Q8IWY9 1-1227) MAAVLESLLREEVSVAAVVRWIARSTQGSEDNAGEAAALSSLRALRKEFVPFLLNFLREQSSRVLPQGPPTPAKTPGASAALPGRPGGPPRGSRGARSQLFPPTEAQSTAAEAPLARRGGRRRGPGPARERGGRGLEEGVSGESLPGAGGRRLRGSGSPSRPSLTLSDPPNLSNLEEFPPVGSVPPGPTGTKPSRRINPTPVSEERSLSKPKTCFTSPPISCVPSSQPSALDTSPWGLGLPPGCRSLQEEREMLRKERSKQLQQSPTPTCPTPELGSPLPSRTGSLTDEPADPARVSSRQRLELVALVYSSCIAENLVPNLFLELFFVFQLLTARRMVTAKDSDPELSPAVLDSLESPLFQSIHDCVFFAVQVLECHFQVLSNLDKGTLKLLAENERLLCFSPALQGRLRAAYEGSVAKVSLVMPPSTQAVSFQPETDNRANFSSDRAFHTFKKQRDVFYEVLREWEDHHEEPGWDFEKGLGSRIRAMMGQLSAACSHSHFVRLFQKQLLQMCQSPGGAGGTVLGEAPDVLSMLGADKLGRLWRLQERLMAPQSSGGPCPPPTFPGCQGFFRDFILSASSFQFNQHLMDSLSLKIQELNGLALPQHEPNDEDGESDVDWQGERKQFAVVLLSLRLLAKFLGFVAFLPYRGPEPPPTGELQDSILALRSQVPPVLDVRTLLQRGLQARRAVLTVPWLVEFLSFADHVVPLLEYYRDIFTLLLRLHRSLVLSQESEGKMCFLNKLLLLAVLGWLFQIPTVPEDLFFLEEGPSYAFEVDTVAPEHGLDNAPVVDQQLLYTCCPYIGELRKLLASWVSGSSGRSGGFMRKITPTTTTSLGAQPSQTSQGLQAQLAQAFFHNQPPSLRRTVEFVAERIGSNCVKHIKATLVADLVRQAESLLQEQLVTQGEEGGDPAQLLEILCSQLCPHGAQALALGREFCQRKSPGAVRALLPEETPAAVLSSAENIAVGLATEKACAWLSANITALIRREVKAAVSRTLRAQGPEPAARGERRGCSRACEHHAPLPSHLISEIKDVLSLAVGPRDPDEGVSPEHLEQLLGQLGQTLRCRQFLCPPAEQHLAKCSVELASLLVADQIPILGPPAQYRLERGQARRLLHMLLSLWKEDFQGPVPLQLLLSPRNVGLLADTRPREWDLLLFLLRELVEKGLMGRMEIEACLGSLHQAQWPGDFAEELATLSNLFLAEPHLPEPQLRACELVQPNRGTVLAQS		binds		
TONSL (endogenous) (protein, UniProt Q96HA7 1-1378) MSLERELRQLSKAKAKAQRAGQRREEAALCHQLGELLAGHGRYAEALEQHWQELQLRERADDPLGCAVAHRKIGERLAEMEDYPAALQHQHQYLELAHSLRNHTELQRAWATIGRTHLDIYDHCQSRDALLQAQAAFEKSLAIVDEELEGTLAQGELNEMRTRLYLNLGLTFESLQQTALCNDYFRKSIFLAEQNHLYEDLFRARYNLGTIHWRAGQHSQAMRCLEGARECAHTMRKRFMESECCVVIAQVLQDLGDFLAAKRALKKAYRLGSQKPVQRAAICQNLQHVLAVVRLQQQLEEAEGRDPQGAMVICEQLGDLFSKAGDFPRAAEAYQKQLRFAELLDRPGAERAIIHVSLATTLGDMKDHHGAVRHYEEELRLRSGNVLEEAKTWLNIALSREEAGDAYELLAPCFQKALSCAQQAQRPQLQRQVLQHLHTVQLRLQPQEAPETETRLRELSVAEDEDEEEEAEEAAATAESEALEAGEVELSEGEDDTDGLTPQLEEDEELQGHLGRRKGSKWNRRNDMGETLLHRACIEGQLRRVQDLVRQGHPLNPRDYCGWTPLHEACNYGHLEIVRFLLDHGAAVDDPGGQGCEGITPLHDALNCGHFEVAELLLERGASVTLRTRKGLSPLETLQQWVKLYRRDLDLETRQKARAMEMLLQAAASGQDPHSSQAFHTPSSLLFDPETSPPLSPCPEPPSNSTRLPEASQAHVRVSPGQAAPAMARPRRSRHGPASSSSSSEGEDSAGPARPSQKRPRCSATAQRVAAWTPGPASNREAATASTSRAAYQAAIRGVGSAQSRLGPGPPRGHSKALAPQAALIPEEECLAGDWLELDMPLTRSRRPRPRGTGDNRRPSSTSGSDSEESRPRARAKQVRLTCMQSCSAPVNAGPSSLASEPPGSPSTPRVSEPSGDSSAAGQPLGPAPPPPIRVRVQVQDHLFLIPVPHSSDTHSVAWLAEQAAQRYYQTCGLLPRLTLRKEGALLAPQDLIPDVLQSNDEVLAEVTSWDLPPLTDRYRRACQSLGQGEHQQVLQAVELQGLGLSFSACSLALDQAQLTPLLRALKLHTALRELRLAGNRLGDKCVAELVAALGTMPSLALLDLSSNHLGPEGLRQLAMGLPGQATLQSLEELDLSMNPLGDGCGQSLASLLHACPLLSTLRLQACGFGPSFFLSHQTALGSAFQDAEHLKTLSLSYNALGAPALARTLQSLPAGTLLHLELSSVAAGKGDSDLMEPVFRYLAKEGCALAHLTLSANHLGDKAVRDLCRCLSLCPSLISLDLSANPEISCASLEELLSTLQKRPQGLSFLGLSGCAVQGPLGLGLWDKIAAQLRELQLCSRRLCAEDRDALRQLQPSRPGPGECTLDHGSKLFFRRL		binds		
C15orf41 (endogenous) (protein, UniProt Q9Y2V0 1-281) MILTKAQYDEIAQCLVSVPPTRQSLRKLKQRFPSQSQATLLSIFSQEYQKHIKRTHAKHHTSEAIESYYQRYLNGVVKNGAAPVLLDLANEVDYAPSLMARLILERFLQEHEETPPSKSIINSMLRDPSQIPDGVLANQVYQCIVNDCCYGPLVDCIKHAIGHEHEVLLRDLLLEKNLSFLDEDQLRAKGYDKTPDFILQVPVAVEGHIIHWIESKASFGDECSHHAYLHDQFWSYWNRFGPGLVIYWYGFIQELDCNRERGILLKACFPTNIVTLCHSIA		binds		
